The source of these data is publication PMC10499909.

Amino acid sequences for entries named in this document (tags omitted). Residues count along the entry.
UniProt P24627, 20-708: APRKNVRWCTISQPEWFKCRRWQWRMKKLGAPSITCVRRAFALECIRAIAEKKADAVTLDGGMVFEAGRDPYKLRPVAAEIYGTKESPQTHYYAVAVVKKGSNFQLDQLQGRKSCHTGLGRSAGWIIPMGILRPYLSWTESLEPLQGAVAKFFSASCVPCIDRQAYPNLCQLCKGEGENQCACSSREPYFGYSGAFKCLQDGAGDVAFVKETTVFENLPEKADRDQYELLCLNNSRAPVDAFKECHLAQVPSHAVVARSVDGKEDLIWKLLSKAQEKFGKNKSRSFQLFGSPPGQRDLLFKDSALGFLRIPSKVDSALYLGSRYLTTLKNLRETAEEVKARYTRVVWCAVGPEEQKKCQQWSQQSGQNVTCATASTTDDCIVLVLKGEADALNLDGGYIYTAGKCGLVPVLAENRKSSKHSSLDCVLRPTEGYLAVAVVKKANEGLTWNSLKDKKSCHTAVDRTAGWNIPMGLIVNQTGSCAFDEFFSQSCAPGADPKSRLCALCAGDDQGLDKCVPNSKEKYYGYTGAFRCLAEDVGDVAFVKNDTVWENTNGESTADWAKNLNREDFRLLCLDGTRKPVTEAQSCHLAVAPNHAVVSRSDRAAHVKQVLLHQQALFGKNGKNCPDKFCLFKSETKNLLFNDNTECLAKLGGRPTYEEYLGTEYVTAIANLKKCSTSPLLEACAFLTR
UniProt P02788, 20-710: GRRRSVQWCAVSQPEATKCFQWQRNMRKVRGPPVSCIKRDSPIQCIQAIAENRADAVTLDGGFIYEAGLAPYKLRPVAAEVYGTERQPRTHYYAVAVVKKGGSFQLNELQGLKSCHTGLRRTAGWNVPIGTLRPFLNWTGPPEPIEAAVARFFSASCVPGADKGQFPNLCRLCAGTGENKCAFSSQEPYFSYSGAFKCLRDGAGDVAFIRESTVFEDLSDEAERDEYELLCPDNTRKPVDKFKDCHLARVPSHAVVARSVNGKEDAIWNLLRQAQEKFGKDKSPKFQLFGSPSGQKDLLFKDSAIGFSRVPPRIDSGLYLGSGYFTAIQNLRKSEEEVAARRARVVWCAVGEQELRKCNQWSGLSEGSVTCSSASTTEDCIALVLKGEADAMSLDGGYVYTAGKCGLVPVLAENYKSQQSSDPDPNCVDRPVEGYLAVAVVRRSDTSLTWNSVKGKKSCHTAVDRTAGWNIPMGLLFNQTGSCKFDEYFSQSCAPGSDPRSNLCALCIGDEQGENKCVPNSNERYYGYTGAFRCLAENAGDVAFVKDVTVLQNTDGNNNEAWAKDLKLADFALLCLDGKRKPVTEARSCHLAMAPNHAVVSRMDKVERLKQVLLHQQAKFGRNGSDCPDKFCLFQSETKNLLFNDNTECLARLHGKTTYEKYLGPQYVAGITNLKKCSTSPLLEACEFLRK

Data set [1] has as its target lactoferrin (bovine colostrum, L4765) (Bos taurus (bovine)) (UniProt P24627). The experiment in a line: fluorescence polarization, displacement from graphene oxide. Conditions: graphene oxide nanosheets, LF 2-10 ug/mL, LOD 1.397 ug/mL; 5'-amino, conjugated to carbon dots (EDC/NHS); PBS pH 6.8, 37 °C, 30 min in dark; CDs-aptamer 0.05 mg/mL with graphene oxide nanosheets; commercial protein; label: carbon dots (fluorescent); single-stranded DNA. In general terms: Fluorescence polarisation rises when a labelled molecule tumbles more slowly, as on binding a larger partner.

In data set [2] the target is lactoferrin (human tear) (human) (UniProt P02788). Described as above. Conditions: graphene oxide nanosheets, human tear sample, 3.32 mg/mL LF measured; 5'-amino, conjugated to carbon dots (EDC/NHS); PBS pH 6.8, 37 °C, 30 min in dark; CDs-aptamer 0.05 mg/mL with graphene oxide nanosheets; native protein; label: carbon dots (fluorescent); single-stranded DNA.

The exact form of at least one protein or probe is not confirmed. At least one verdict was read from the data and is not stated in words by the source.

As to “AGGCAGGACACCGTAACCGGTGCATCTATGGCTACTAGCTCTTCCTGCCT [LF aptamer on carbon dots (CDs-aptamer)]”, the binding result in data set [1] and in data set [2] was “binds” in each case.
